Results: US8242167B2, “Mannose derivatives for killing tumor cells” (University of Miami, priority 2006, dated 2012)
At least one structure is not confirmed: it was looked up by name or label, or the drawing left a doubt.

Tested on: SKBR3 cells
Assay: Growth inhibitory and cytotoxicity assay in SKBR3 cells under normoxia
Type: cell-based, human
Description: Cytotoxicity assay and Rapid DNA Content Analysis. Cells were incubated for 24 hr at 37° C. in 5% CO2 at which time drug treatments began and were continued for 72 hr. At this time, attached cells were trypsinized and combined with their respective culture media followed by centrifugation at 400 g for 5 min. Pellets containing the cells were either resuspended in 1.5 ml of a medium/trypan blue mixture for cytotoxicity assays or propidium iodide/hypotonic citrate staining solution for determining the nuclear DNA content and cell cycle by a Coulter XL flow cytometer. A minimum of 10,000 cells were analyzed to generate a DNA distribution histogram.
Cytotoxicity assay. Cells were incubated for 24 hr at 37° C. in 5% CO2 at which time drug treatments began and continued for 72 hr. At this time, attached cells were trypsinized and combined with their respective culture media followed by centrifugation at 400 g for 5 min. The pellets were resuspended in 1 ml of Hanks solution and analyzed by Vi-Cell (Beckman Coulter, USA) cell viability analyzer.

For `NC(=O)C(=O)O` [oxamate], the “toxicity to SKBR3 cells grown under normoxia (FIG. 1)” value was “neither of these agents caused toxicity”.
